## Percent effect of library compounds

Sequences of proteins named here, by UniProt entry; tags and fusion partners are left off.
UniProt P9WFT3, whole entry: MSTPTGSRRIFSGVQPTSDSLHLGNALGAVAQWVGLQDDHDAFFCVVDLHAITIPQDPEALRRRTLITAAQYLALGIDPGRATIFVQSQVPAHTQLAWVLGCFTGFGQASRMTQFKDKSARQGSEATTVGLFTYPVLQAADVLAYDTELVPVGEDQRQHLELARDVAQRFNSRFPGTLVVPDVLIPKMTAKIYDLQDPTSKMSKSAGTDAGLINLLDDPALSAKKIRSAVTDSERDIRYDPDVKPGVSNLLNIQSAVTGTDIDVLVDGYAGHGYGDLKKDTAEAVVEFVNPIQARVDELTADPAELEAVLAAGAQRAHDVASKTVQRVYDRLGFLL
UniProt P9WNZ1, whole entry: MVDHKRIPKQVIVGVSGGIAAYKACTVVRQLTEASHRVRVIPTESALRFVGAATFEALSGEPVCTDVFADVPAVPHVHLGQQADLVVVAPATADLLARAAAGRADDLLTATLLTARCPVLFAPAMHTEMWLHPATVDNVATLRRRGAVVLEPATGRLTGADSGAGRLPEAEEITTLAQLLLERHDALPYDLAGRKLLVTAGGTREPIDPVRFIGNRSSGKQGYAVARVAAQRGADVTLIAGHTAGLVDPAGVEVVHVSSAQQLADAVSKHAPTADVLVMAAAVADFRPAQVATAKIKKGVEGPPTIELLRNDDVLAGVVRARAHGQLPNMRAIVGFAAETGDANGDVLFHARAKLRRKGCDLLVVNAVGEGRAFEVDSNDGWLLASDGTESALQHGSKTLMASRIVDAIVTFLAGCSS

The values are deposited in ChEMBL (CHEMBL3988442, “University of Dundee, Small-Polar-MMV Screening Library” (2021)).

Leishmania in macrophages: 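Cell assay of Leishmania donovani living inside macrophages; the read-out is not stated. Compounds at 30 µM. Higher reads as stronger inhibition (inferred: compounds with an IC50 in retests scored well above the rest). Of about 69,000 compounds tested this way, about 1,000 (1.5%) reached 50% or more in at least one test.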
MtTrpRS: 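Enzyme assay of tryptophanyl-tRNA synthetase; the read-out is not stated. Target: Tryptophan-tRNA ligase, Mycobacterium tuberculosis (UniProt P9WFT3). Tested at 10 µM. Direction is not recorded; retested compounds ran higher, which suggests that high means inhibition. Size under these conditions: about 65,000 compounds, about 64 of them at 50% or above in at least one test.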
Toxoplasma: 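Assay of Toxoplasma gondii numbers, read through their beta-galactosidase reporter with a colour substrate. Concentration: 10 µM. The record gives no direction; the compounds picked for IC50 retests had high values, so higher reads as fewer parasites. Size under these conditions: about 67,000 compounds, about 260 of them at 50% or above in at least one test.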
CoaBC: 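Enzyme assay of CoaBC with a phosphate dye (Biomol Green) read at 650 nm. Target: Coenzyme A biosynthesis protein CoaBC, Mycobacterium tuberculosis (UniProt P9WNZ1). Tested at 30 µM. Direction is inferred from only a few compounds that gave an IC50; most scored high, so higher reads as stronger inhibition. Most strong results did not repeat in a second test. Of about 67,000 compounds tested this way, about 40 (0.06%) reached 50% or more in at least one test.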

Results are given as percent effect. How 0% and 100% were set is not recorded. Most values in the screen are low, and negative values occur. The compounds are a random part of those screened. Two or more numbers in one place are separate tests of the same structure; such repeats can differ widely.

Cc1cccc(CN2C[C@@H]3CN(C(=O)c4cnccn4)C[C@@H]3C2=O)c1 read MtTrpRS: 2.766%; CoaBC: 5.863%. For Cc1ocnc1C(=O)N1CCN(C(=O)CC(C)C)[C@@H]2CS(=O)(=O)C[C@@H]21 the result was MtTrpRS: 1.188%; CoaBC: 1.463%. With [H][C@]12CC[C@@]3(N=C(C)N(CCOC)C3=O)[C@@]1([H])CN(C(=O)NC1CCCC1)C2 the screen gave Leishmania in macrophages: 25.44%; Toxoplasma: -16.56%. Cc1nn(C)c(N(C)C)c1CNCc1cccnc1N(C)C read Leishmania in macrophages: -0.5237%; MtTrpRS: 11.22%; Toxoplasma: -22.92%; CoaBC: 4.596%.

With Cc1cccc(Nc2nccnc2C2CCCN2CC(N)=O)n1 (stereo not drawn) the screen gave Leishmania in macrophages: -5.806% and -1.007%; Toxoplasma: 6.05%; CoaBC: 0.9685%. With COCC(=O)N1CCC(Oc2cccc(C)c2)CC1 the screen gave Leishmania in macrophages: -34.79%; MtTrpRS: 1.338%; Toxoplasma: 11.09%; CoaBC: 8.466% and 21.36%. Result for Cc1cc(N(C)C)nc(C2(C)CCCN2C(=O)c2ccn(C)n2)n1 (stereo not drawn) was Leishmania in macrophages: 1.341%; Toxoplasma: 7.036%; CoaBC: -0.6196%. For Cc1noc(C(C)C)c1C(=O)NCC1CCCN1Cc1ccccc1 (stereo not drawn) the result was Leishmania in macrophages: 1.287%; MtTrpRS: 2.321%; Toxoplasma: 1.079%.

Result for Cc1noc([C@H]2COC[C@H]3CN(C(=O)Cc4cccc(F)c4)C[C@H]32)n1 was MtTrpRS: 0.2766%; CoaBC: 2.005%. For CN1CCC(Nc2cc(Cl)ccc2OCC(F)(F)F)C1=O (stereo not drawn) the result was Leishmania in macrophages: -0.4382%; MtTrpRS: -0.5113%; Toxoplasma: 5.278%; CoaBC: -3.949%. Result for O=C(CCc1ccccc1)N1CC(n2cncn2)C1 was Leishmania in macrophages: 8.954%; MtTrpRS: -12.11%; Toxoplasma: -47.32%; CoaBC: -3.947%. Result for O=C1CC[C@]2(CC[C@@H](NC3CCOC3)CC2)N1Cc1ccccc1 (stereo partly drawn) was MtTrpRS: -2.506%; CoaBC: 5.344%.

With CC(C)CC(=O)N(C)Cc1nc(C(F)(F)F)cs1 the screen gave Leishmania in macrophages: -14.56%; MtTrpRS: -1.29%; Toxoplasma: 1.633%; CoaBC: 4.714%. Result for Cc1cc(C2CCCN2C(=O)CN2C(=O)OC(C)(C)C2=O)on1 (stereo not drawn) was Leishmania in macrophages: -8.096%; MtTrpRS: 4.552%; Toxoplasma: 0%; CoaBC: 4.793%. Result for COc1cc(CNCCn2cc(C)cn2)c2c(c1)CC(C)O2 (stereo not drawn) was Leishmania in macrophages: 18.02%; MtTrpRS: -1.499%; Toxoplasma: -2.023%; CoaBC: 5.128%. O=C(Nc1cc(CSCCO)ccn1)c1ccc(Cl)o1 gave Leishmania in macrophages: 27.02%; MtTrpRS: 3.612%; Toxoplasma: 6.408%; CoaBC: 7.073%.

With CCC1CN(CCNS(C)(=O)=O)c2ccccc2O1 (stereo not drawn) the screen gave Leishmania in macrophages: -22.09%; MtTrpRS: 0.5228%; Toxoplasma: -8.815%; CoaBC: 3.686%. For CCCC1CN(CC(C)C)C(=O)c2cccnc2O1 (stereo not drawn) the result was Leishmania in macrophages: -24.79%; Toxoplasma: 2.389%; CoaBC: 1.211%. Result for O=C1CCC2(CCCN(C(=O)Cc3ccccc3)C2)N1 (stereo not drawn) was Leishmania in macrophages: 0.8026%; MtTrpRS: -3.638%; Toxoplasma: -24.62%; CoaBC: 0.7634%. With c1ccc(CN2CCc3c(COCC4CC4)cncc3C2)nc1 the screen gave MtTrpRS: -2.322%; CoaBC: 6.588%.

CCN1Cc2nccn2CC(COCc2csc(C)n2)C1.O=C(O)C(F)(F)F.O=C(O)C(F)(F)F (stereo not drawn) gave Leishmania in macrophages: -2.379%; Toxoplasma: 9.214%. CCS(=O)(=O)N1CCC2(CC1)CC(CC(=O)NC1CC1)c1ccccc12 (stereo not drawn) gave Leishmania in macrophages: 32.15%; MtTrpRS: 2.596%; Toxoplasma: 3.163%; CoaBC: 1.486%. For CN(C)CCN1CC2(CCN(C(=O)c3cnccn3)CC2)OC1=O the result was Leishmania in macrophages: -7.271%; MtTrpRS: -1.125%; Toxoplasma: -0.5839%; CoaBC: -0.6508%. O=S(=O)(Cc1ccc(F)cc1F)NCCOc1cccnc1 gave Leishmania in macrophages: 26.28%; MtTrpRS: 2.871%; Toxoplasma: -26.88%; CoaBC: 2.02%.

Result for CCN(CC)CC1CCN(C(=O)CCn2cccn2)CC1 was Leishmania in macrophages: 26.35%; MtTrpRS: -3.58%; Toxoplasma: 5.463%; CoaBC: 11.83%. O=C(c1cc[nH]n1)N1CC[C@@H]2CN(Cc3ccncc3)S(=O)(=O)[C@@H]2CC1 gave MtTrpRS: -7.541%; CoaBC: -4.44%. N[C@@H]1c2ccccc2C2(CCN(c3cc(C(F)(F)F)ccn3)CC2)[C@H]1O read Leishmania in macrophages: -20.81%; MtTrpRS: 0.2719%; Toxoplasma: 22.76%; CoaBC: 3.924%. For O=C(CCc1cccs1)Nc1ccnn1C1CCS(=O)(=O)C1 (stereo not drawn) the result was Leishmania in macrophages: 5.143%; MtTrpRS: -1.33%; Toxoplasma: -2.386%; CoaBC: 7.393%.

CN(CC(N)=O)C(=O)c1cc(Cl)c(Cl)n1C read Leishmania in macrophages: 0.5708%; MtTrpRS: -7.121%; Toxoplasma: 2.999%; CoaBC: 1.339%. Result for Cc1ccc(C2(O)CCN(C(=O)CCn3c(C)cccc3=O)CC2)nc1 was Leishmania in macrophages: -2.946%; MtTrpRS: 5.753%; Toxoplasma: 15.87%; CoaBC: 5.825%.